These are yes or no findings as the source states them, for the method shown. Some results given as binding are weak or reduced against the parent protein; the word gives no strength.
Target: zFGF5 (human) (UniProt O76093)
Test: soluble receptor-Fc competition, proliferation of BAF3 cells expressing FGFR3α-IIIc

By UniProt entry, the sequences of proteins in these tests, tags left out. Where a name states a change or a piece, a line headed by the entry shows the natural chain unless it says otherwise.
UniProt O76093: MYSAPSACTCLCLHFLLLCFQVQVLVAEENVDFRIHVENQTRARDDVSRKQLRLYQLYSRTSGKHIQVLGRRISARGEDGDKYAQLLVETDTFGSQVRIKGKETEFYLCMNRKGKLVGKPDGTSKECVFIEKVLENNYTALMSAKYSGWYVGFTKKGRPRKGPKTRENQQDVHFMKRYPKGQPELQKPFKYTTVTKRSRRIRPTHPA
UniProt P22607: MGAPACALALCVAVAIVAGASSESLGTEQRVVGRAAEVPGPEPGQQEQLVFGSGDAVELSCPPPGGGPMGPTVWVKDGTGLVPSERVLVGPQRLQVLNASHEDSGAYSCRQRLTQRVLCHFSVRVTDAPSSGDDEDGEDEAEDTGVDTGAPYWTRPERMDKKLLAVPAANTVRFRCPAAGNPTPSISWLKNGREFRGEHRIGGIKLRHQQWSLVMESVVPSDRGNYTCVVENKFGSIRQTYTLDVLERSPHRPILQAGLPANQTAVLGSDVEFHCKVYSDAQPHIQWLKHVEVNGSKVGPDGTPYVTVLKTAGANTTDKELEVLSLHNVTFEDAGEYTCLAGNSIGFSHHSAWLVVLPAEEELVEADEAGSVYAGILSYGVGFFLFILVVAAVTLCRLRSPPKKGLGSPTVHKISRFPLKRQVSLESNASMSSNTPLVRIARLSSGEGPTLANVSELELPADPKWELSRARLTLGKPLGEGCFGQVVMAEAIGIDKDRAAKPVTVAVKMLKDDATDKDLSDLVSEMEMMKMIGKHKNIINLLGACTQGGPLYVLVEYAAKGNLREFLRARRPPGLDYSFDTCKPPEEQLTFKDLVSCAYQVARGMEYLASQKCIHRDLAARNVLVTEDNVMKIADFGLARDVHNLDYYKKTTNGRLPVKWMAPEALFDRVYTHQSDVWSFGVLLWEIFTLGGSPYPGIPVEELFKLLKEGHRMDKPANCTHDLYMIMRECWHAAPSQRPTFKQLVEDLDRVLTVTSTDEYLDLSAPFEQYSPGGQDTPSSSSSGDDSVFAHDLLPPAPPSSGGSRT

binding: binds
Substance: FGFR3α-IIIc/Fc (from UniProt P22607 23-375) (Fc fusion)
